According to US20250171452A1 (Viscient Bio, Inc., priority 2022, published 2025):
The match of structure and compound is tentative.

Sequences of proteins named here, by UniProt entry; tags and fusion partners are left off.
UniProt Q6ZQW0, whole entry: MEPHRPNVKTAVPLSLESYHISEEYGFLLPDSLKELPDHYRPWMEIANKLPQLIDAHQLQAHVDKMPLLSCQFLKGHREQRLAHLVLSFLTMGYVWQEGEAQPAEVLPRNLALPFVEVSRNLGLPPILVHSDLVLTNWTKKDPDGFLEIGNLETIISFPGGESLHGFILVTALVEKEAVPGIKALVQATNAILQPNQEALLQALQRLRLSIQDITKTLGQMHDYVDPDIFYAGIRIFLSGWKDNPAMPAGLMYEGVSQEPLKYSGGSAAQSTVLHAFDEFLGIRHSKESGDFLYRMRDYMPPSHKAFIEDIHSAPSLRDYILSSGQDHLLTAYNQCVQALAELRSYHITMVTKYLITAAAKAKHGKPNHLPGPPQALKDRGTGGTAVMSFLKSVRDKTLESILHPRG

Biological target: IDO2 (Homo sapiens (Human), UniProt Q6ZQW0)
Assay: Cellular IDO2 assay, doxycycline and 5-methoxy-L-tryptophan medium, colorimetric
Type: cell-based
Details: read-out: IDO2 IC50: Average IC50; cellular level, 72 h incubation, signal at 480 nm

Compound	IC50
COc1ccc2nc3n(c(=O)c2c1)-c1ccc([N+](=O)[O-])cc1C3=O	< 50 nM
O=C1c2cc([N+](=O)[O-])ccc2-n2c1nc1cccc(Cl)c1c2=O	< 50 nM
